Results: patent US20260217701A1, “SELECTIVE BET INHIBITORS AND USES THEREOF” (Tay Therapeutics Limited, priority 2022, published 2026)
Values joined by “and” are separate entries in the source; they are usually repeats but may differ in a detail not shown here. Identical values can stand only once. This continues a long series; more values of the same kind are listed elsewhere.

Experiment: CIA study: animal body weight
Conditions: individual animals

## Cn1cc(-c2ccccc2)c(-c2cn(C)c(=O)c3[nH]c(-c4cnn(C(F)(F)F)c4)cc23)cc1=O [Compound A, 6-methyl-4-(1-methyl-2-oxo-5-phenyl-1,2-dihydropyridin-4-yl)-2-(1-(trifluoromethyl)-1H-pyrazol-4-yl)-1,6-dihydro-7H-pyrrolo[2,3-c]pyridin-7-one]
Day 0, Group 7 (CIA + Compound A 10 mg/kg)
  Animal body weight percent change (%): 0.00%
Day 1, Group 5 (CIA + Compound A 1 mg/kg), 1 mg/kg
  Animal body weight percent change (%): 2.45% and 2.42% and −3.66% and 4.32% and 1.97% and 0.59% and 0.00% and 4.29%
Day 1, Group 6 (CIA + Compound A 3 mg/kg), 3 mg/kg
  Animal body weight percent change (%): −2.98% and 0.58% and 0.00% and −3.59% and −0.60% and 1.84% and 1.91% and 1.28%
Day 1, Group 7 (CIA + Compound A 10 mg/kg), 10 mg/kg
  Animal body weight percent change (%): −4.62% and 2.44% and 2.40% and 2.52% and 2.50% and −1.28% and 2.48% and 2.53%
Day 2, Group 5 (CIA + Compound A 1 mg/kg), 1 mg/kg
  Animal body weight percent change (%): 1.84% and 2.42% and −3.05% and 3.09% and −0.66% and −1.78% and −1.20% and −1.23%
Day 2, Group 6 (CIA + Compound A 3 mg/kg), 3 mg/kg
  Animal body weight percent change (%): −3.57% and 0.00% and 1.14% and −2.99% and −0.60% and 1.23% and 1.27% and 1.28%
Day 2, Group 7 (CIA + Compound A 10 mg/kg), 10 mg/kg
  Animal body weight percent change (%): −1.73% and 1.83% and 1.80% and 0.00% (2×) and 2.50% and 1.28% and 2.53%
Day 3, Group 5 (CIA + Compound A 1 mg/kg), 1 mg/kg
  Animal body weight percent change (%): 1.23% and 0.61% and −3.05% and 4.32% and 2.63% and 2.96% and 0.00% and 4.91%
Day 3, Group 6 (CIA + Compound A 3 mg/kg), 3 mg/kg
  Animal body weight percent change (%): 4.76% and 1.75% and −2.86% and −2.99% and −1.80% and −0.61% and 1.91% and 1.28%
Day 3, Group 7 (CIA + Compound A 10 mg/kg), 10 mg/kg
  Animal body weight percent change (%): −2.31% and 1.83% and 2.40% and −0.63% and 6.25% and 1.28% and −2.48% and 1.27%
Day 4, Group 5 (CIA + Compound A 1 mg/kg), 1 mg/kg
  Animal body weight percent change (%): 3.07% and 0.61% and −3.05% and 2.47% and 3.29% and 0.59% and −0.60% and 3.68%
Day 4, Group 6 (CIA + Compound A 3 mg/kg), 3 mg/kg
  Animal body weight percent change (%): −0.60% and 1.17% and 0.00% (2×) and −4.79% and −1.20% and −2.45% and 5.10%
Day 4, Group 7 (CIA + Compound A 10 mg/kg), 10 mg/kg
  Animal body weight percent change (%): −2.31% and −0.61% and 1.20% and 0.63% and 5.00% and 0.64% and 0.00% and 2.53%
Day 5, Group 5 (CIA + Compound A 1 mg/kg), 1 mg/kg
  Animal body weight percent change (%): 4.29% and 7.88% and 0.61% and 6.17% and 2.63% and 1.18% and 2.40% and 4.91%
Day 5, Group 6 (CIA + Compound A 3 mg/kg), 3 mg/kg
  Animal body weight percent change (%): −1.19% and 3.51% and 1.71% and −4.19% and −2.40% and 3.07% and 6.37% and −1.28%
Day 5, Group 7 (CIA + Compound A 10 mg/kg), 10 mg/kg
  Animal body weight percent change (%): −3.47% and 4.88% and 2.99% and 1.26% and 6.25% and 2.56% and 1.24% and 5.06%
Day 6, Group 5 (CIA + Compound A 1 mg/kg), 1 mg/kg
  Animal body weight percent change (%): 4.29% and 9.09% and −4.27% and 8.64% and 5.92% and 1.18% and 2.40% and 7.36%
Day 6, Group 6 (CIA + Compound A 3 mg/kg), 3 mg/kg
  Animal body weight percent change (%): −2.98% and 1.75% and 0.57% and −4.19% and 1.80% and 2.45% and 7.01% and 0.64%
Day 6, Group 7 (CIA + Compound A 10 mg/kg), 10 mg/kg
  Animal body weight percent change (%): −2.89% and 1.83% and 2.99% and 3.77% and 6.25% and 0.64% and 2.48% and 2.53%
Day 7, Group 5 (CIA + Compound A 1 mg/kg), 1 mg/kg
  Animal body weight percent change (%): 4.91% and 10.30% and −4.27% and 5.56% and 6.58% and 0.59% and 4.19% and 3.68%
Day 7, Group 6 (CIA + Compound A 3 mg/kg), 3 mg/kg
  Animal body weight percent change (%): −6.55% and 0.58% and −1.14% and −2.99% and −2.40% and 0.61% and 5.73% and −1.28%
Day 7, Group 7 (CIA + Compound A 10 mg/kg), 10 mg/kg
  Animal body weight percent change (%): −5.20% and 2.44% and 3.59% and 0.63% and 5.00% and −1.92% and −1.24% and 3.80%
Day 8, Group 5 (CIA + Compound A 1 mg/kg), 1 mg/kg
  Animal body weight percent change (%): 1.84%
Day 8, Group 7 (CIA + Compound A 10 mg/kg), 10 mg/kg
  Animal body weight percent change (%): −6.36% and 0.00% and −1.20% and 0.63% and 2.50% and −0.64% and −1.86% and 4.43%
Day 9, Group 7 (CIA + Compound A 10 mg/kg), 10 mg/kg
  Animal body weight percent change (%): −5.20% and 0.61% and 0.60% and 0.63% and 3.13% and −2.56% and 0.62% and 5.06%
Day 10, Group 5 (CIA + Compound A 1 mg/kg), 1 mg/kg
  Animal body weight percent change (%): 4.29%
Day 10, Group 6 (CIA + Compound A 3 mg/kg), 3 mg/kg
  Animal body weight percent change (%): 3.85%
Day 10, Group 7 (CIA + Compound A 10 mg/kg), 10 mg/kg
  Animal body weight percent change (%): −4.62% and 0.61% and 2.99% and 1.26% and 4.38% and 1.92% and 0.00% and 4.43%
Day 11, Group 5 (CIA + Compound A 1 mg/kg), 1 mg/kg
  Animal body weight percent change (%): 4.91%
Day 11, Group 6 (CIA + Compound A 3 mg/kg), 3 mg/kg
  Animal body weight percent change (%): 5.77%
Day 11, Group 7 (CIA + Compound A 10 mg/kg), 10 mg/kg
  Animal body weight percent change (%): −5.20% and 5.49% and 1.80% and 1.89% and 4.38% and −2.56% and −0.62% and 6.33%
Day 12, Group 5 (CIA + Compound A 1 mg/kg), 1 mg/kg
  Animal body weight percent change (%): 6.75%
Day 12, Group 6 (CIA + Compound A 3 mg/kg), 3 mg/kg
  Animal body weight percent change (%): 5.77%
Day 12, Group 7 (CIA + Compound A 10 mg/kg), 10 mg/kg
  Animal body weight percent change (%): −5.78% and 5.49% and 1.80% and 0.63% and 5.00% and 1.92% and 1.24% and 4.43%
Day 13, Group 5 (CIA + Compound A 1 mg/kg), 1 mg/kg
  Animal body weight percent change (%): 1.84%
Day 13, Group 6 (CIA + Compound A 3 mg/kg), 3 mg/kg
  Animal body weight percent change (%): 3.85%
Day 13, Group 7 (CIA + Compound A 10 mg/kg), 10 mg/kg
  Animal body weight percent change (%): −5.78% and 3.66% and 2.99% and −1.26% and 1.25% and 0.00% and −0.62% and 5.06%
Day 14, Group 5 (CIA + Compound A 1 mg/kg), 1 mg/kg
  Animal body weight percent change (%): 5.52%
Day 14, Group 6 (CIA + Compound A 3 mg/kg), 3 mg/kg
  Animal body weight percent change (%): 1.28%
Day 14, Group 7 (CIA + Compound A 10 mg/kg), 10 mg/kg
  Animal body weight percent change (%): −5.20% and 3.05% and 1.80% and −3.14% and 0.63% and 0.64% and 1.24% and 1.27%
Day 15, Group 5 (CIA + Compound A 1 mg/kg), 1 mg/kg
  Animal body weight percent change (%): 7.36% and 10.30% and −6.10% and 7.41% and 3.95% and 1.18% and 0.60% and 1.23%
Day 15, Group 6 (CIA + Compound A 3 mg/kg), 3 mg/kg
  Animal body weight percent change (%): −4.17% and 1.75% and −2.86% and 4.19% and −4.79% and 1.84% and 5.73% and 1.28%
Day 15, Group 7 (CIA + Compound A 10 mg/kg), 10 mg/kg
  Animal body weight percent change (%): −6.36% and 3.66% and 1.20% and −3.14% and 0.00% and 0.64% and −0.62% and 5.70%
Day 16, Group 5 (CIA + Compound A 1 mg/kg), 1 mg/kg
  Animal body weight percent change (%): 7.98% and 10.30% and −4.27% and 4.94% and 2.63% and 2.37% and −1.80% and −1.23%
Day 16, Group 6 (CIA + Compound A 3 mg/kg), 3 mg/kg
  Animal body weight percent change (%): −5.95% and −1.17% and −2.86% and 1.80% and −4.79% and 4.29% and 5.10% and 0.64%
Day 16, Group 7 (CIA + Compound A 10 mg/kg), 10 mg/kg
  Animal body weight percent change (%): −5.78% and 0.61% and 2.40% and −3.77% and 1.88% and 0.64% and −4.35% and 3.80%
Day 17, Group 5 (CIA + Compound A 1 mg/kg), 1 mg/kg
  Animal body weight percent change (%): 8.59% and 7.27% and −5.49% and 7.41% and 3.29% and 2.37% and −1.80% and −1.84%
Day 17, Group 6 (CIA + Compound A 3 mg/kg), 3 mg/kg
  Animal body weight percent change (%): −8.33% and −0.58% and −4.00% and 1.20% and −5.39% and 2.45% and 3.18% and 0.00%
Day 17, Group 7 (CIA + Compound A 10 mg/kg), 10 mg/kg
  Animal body weight percent change (%): −5.20% and −1.22% and −0.60% and −2.52% and 5.00% and 2.56% and −4.35% and 2.53%
Day 18, Group 5 (CIA + Compound A 1 mg/kg), 1 mg/kg
  Animal body weight percent change (%): 8.59% and 5.45% and −4.88% and 6.79% and 1.97% and 3.55% and −1.80% and −0.61%
Day 18, Group 6 (CIA + Compound A 3 mg/kg), 3 mg/kg
  Animal body weight percent change (%): −7.74% and −1.17% and −4.57% and 2.40% and −5.99% and 3.07% and 5.73% and −0.64%
Day 18, Group 7 (CIA + Compound A 10 mg/kg), 10 mg/kg
  Animal body weight percent change (%): −6.94% and −2.44% and 0.60% and −2.52% and 4.38% and 3.85% and −4.97% and 5.70%
Day 19, Group 5 (CIA + Compound A 1 mg/kg), 1 mg/kg
  Animal body weight percent change (%): 6.75% and 3.03% and −7.32% and 5.56% and 1.32% and 4.14% and −2.40% and 0.61%
Day 19, Group 6 (CIA + Compound A 3 mg/kg), 3 mg/kg
  Animal body weight percent change (%): −7.14% and −1.17% and −4.00% and 0.60% and −6.59% and 1.23% and 5.73% and −2.56%
Day 19, Group 7 (CIA + Compound A 10 mg/kg), 10 mg/kg
  Animal body weight percent change (%): −5.78% and −4.88% and 1.80% and −2.52% and 3.13% and 3.21% and −4.97% and 4.43%
Day 20, Group 5 (CIA + Compound A 1 mg/kg), 1 mg/kg
  Animal body weight percent change (%): 11.04% and 4.85% and −6.10% and 4.94% and 1.32% and 3.55% and −2.99% and −1.23%
Day 20, Group 6 (CIA + Compound A 3 mg/kg), 3 mg/kg
  Animal body weight percent change (%): −7.74% and −3.51% and −6.29% and −2.99% and −3.59% and 4.29% and 3.82% and −1.92%
Day 20, Group 7 (CIA + Compound A 10 mg/kg), 10 mg/kg
  Animal body weight percent change (%): −5.20% and −3.66% and 0.00% and −1.26% and 3.13% and 4.49% and −4.97% and 3.16%
Day 21, Group 5 (CIA + Compound A 1 mg/kg), 1 mg/kg
  Animal body weight percent change (%): 9.82% and 3.03% and −6.71% and 2.47% and 0.66% and 2.96% and −4.79% and 0.00%
Day 21, Group 6 (CIA + Compound A 3 mg/kg), 3 mg/kg
  Animal body weight percent change (%): −7.14% and −2.92% and −5.71% and −2.40% and −2.99% and 1.84% and 5.73% and −0.64%
Day 21, Group 7 (CIA + Compound A 10 mg/kg), 10 mg/kg
  Animal body weight percent change (%): −6.36% and −5.49% and 0.00% and 0.63% and 2.50% and 5.77% and −6.21% and 3.16%
